Laboratory results as given in the M2OR odorant receptor database.
Substitutions are numbered along the chain they refer to. This is a selection; strong and weak results do not stand in their true shares. Calls are pooled over several reports, among them a noisy single-well screen. This is one part of the list.

Chains of the proteins cited; added tags and fusions are not shown. A line that says so, or that is headed by a name, gives the form on record, which may keep a tag or linker.
O4C46, as listed by the source: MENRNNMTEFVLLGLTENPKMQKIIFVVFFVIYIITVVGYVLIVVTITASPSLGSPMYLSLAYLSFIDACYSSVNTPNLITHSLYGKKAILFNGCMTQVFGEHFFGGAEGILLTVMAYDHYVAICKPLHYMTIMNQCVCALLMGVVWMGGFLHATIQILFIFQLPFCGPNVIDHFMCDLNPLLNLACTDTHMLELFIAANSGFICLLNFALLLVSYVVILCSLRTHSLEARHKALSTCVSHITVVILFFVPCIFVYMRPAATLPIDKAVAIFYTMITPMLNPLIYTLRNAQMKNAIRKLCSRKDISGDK
O4A15, as listed by the source: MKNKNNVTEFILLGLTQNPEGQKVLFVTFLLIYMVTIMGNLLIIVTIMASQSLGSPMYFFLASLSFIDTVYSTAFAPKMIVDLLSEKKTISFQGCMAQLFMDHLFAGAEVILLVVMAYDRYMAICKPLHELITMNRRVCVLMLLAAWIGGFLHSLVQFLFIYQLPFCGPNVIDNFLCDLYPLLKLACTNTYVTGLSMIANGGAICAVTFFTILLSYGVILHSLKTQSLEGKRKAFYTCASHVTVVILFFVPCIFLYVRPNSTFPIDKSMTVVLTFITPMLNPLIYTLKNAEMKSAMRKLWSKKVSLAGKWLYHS
O4F17, as listed by the source: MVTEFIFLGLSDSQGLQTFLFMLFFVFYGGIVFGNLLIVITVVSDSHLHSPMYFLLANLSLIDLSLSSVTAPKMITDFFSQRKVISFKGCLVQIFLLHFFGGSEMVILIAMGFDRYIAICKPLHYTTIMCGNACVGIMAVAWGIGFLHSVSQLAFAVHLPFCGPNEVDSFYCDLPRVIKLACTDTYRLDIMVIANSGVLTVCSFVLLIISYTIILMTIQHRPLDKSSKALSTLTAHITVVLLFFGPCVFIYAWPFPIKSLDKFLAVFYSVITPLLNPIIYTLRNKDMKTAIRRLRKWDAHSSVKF

How the values were obtained:
Conditions in all cases: stereoisomer not certain
O2AG2 = test system: T1, O2AG2
T1 sequence (whole entry): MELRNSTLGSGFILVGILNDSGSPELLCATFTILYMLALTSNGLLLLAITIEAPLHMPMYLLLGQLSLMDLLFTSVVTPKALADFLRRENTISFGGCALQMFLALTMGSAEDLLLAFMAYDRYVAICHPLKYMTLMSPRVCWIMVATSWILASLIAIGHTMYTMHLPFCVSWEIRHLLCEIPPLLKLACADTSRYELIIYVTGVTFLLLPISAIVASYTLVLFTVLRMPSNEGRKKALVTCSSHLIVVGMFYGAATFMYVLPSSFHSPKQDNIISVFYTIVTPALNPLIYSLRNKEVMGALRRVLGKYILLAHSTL
Summary of the method: (§1)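 Each receptor–molecule pair is labelled responsive or non-responsive (inactive) according to whether the original authors judged the measured signal statistically different from baseline. The data were taken from the main text and supplementary material of published papers and checked for typos and inconsistencies. Assay methods differed by source, with transient luciferase assays in mammalian cell lines being common.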

O2AJ1 = test system: T2, O2AJ1
T2 sequence (whole entry): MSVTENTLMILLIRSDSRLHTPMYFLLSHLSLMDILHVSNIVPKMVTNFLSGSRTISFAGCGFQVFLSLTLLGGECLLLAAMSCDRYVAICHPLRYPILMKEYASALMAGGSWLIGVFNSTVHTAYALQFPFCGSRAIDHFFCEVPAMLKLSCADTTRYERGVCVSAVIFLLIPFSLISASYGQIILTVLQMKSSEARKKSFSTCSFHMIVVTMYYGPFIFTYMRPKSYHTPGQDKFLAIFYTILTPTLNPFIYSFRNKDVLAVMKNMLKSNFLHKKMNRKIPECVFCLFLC
Summary of the method: as §1

O2AK2 = test system: T3, O2AK2
T3 sequence (whole entry): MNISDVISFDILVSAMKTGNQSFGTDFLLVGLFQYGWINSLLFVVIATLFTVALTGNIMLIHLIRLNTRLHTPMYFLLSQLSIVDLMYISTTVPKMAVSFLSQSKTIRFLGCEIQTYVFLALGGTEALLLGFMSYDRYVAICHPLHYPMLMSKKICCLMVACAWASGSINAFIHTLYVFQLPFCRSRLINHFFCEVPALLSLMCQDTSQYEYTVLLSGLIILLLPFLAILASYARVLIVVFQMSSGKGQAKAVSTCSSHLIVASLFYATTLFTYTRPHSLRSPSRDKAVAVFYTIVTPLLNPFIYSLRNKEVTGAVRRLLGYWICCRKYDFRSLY
Summary of the method: as §1

O2T11 = test system: T4, O2T11
T4 sequence (whole entry): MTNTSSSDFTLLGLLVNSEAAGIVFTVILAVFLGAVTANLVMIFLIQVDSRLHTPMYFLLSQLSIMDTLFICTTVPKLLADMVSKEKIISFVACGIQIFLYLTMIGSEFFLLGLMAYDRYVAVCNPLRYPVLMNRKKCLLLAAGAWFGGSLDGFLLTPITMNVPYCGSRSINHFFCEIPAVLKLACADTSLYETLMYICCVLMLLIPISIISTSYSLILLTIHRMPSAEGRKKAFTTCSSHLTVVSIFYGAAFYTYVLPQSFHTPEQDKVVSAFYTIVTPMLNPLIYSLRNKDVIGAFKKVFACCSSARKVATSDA
Summary of the method: as §1

O2T29 [1] = test system: T5, O2T29
T5 sequence (whole entry): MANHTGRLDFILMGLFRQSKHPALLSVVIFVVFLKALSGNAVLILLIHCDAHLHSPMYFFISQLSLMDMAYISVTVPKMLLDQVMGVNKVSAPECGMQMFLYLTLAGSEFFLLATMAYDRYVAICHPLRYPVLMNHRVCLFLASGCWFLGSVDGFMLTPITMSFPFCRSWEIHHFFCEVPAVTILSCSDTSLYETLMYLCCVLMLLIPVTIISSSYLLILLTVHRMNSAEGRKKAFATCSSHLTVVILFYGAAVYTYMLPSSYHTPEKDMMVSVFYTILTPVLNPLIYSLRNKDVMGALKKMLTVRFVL
Summary of the method: as §1

O2T29 [2] = test system: T6, O2T29; remark: listed apart in the source
T6 sequence (whole entry): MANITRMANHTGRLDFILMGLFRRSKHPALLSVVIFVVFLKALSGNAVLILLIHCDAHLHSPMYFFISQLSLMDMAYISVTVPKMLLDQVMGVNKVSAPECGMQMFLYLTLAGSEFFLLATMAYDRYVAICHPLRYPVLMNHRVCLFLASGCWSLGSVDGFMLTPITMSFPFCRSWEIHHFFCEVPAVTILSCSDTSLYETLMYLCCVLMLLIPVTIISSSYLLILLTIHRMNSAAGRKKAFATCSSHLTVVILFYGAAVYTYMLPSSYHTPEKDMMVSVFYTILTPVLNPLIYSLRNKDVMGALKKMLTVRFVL
Summary of the method: as §1

O2T33 = test system: T7, O2T33
T7 sequence (whole entry): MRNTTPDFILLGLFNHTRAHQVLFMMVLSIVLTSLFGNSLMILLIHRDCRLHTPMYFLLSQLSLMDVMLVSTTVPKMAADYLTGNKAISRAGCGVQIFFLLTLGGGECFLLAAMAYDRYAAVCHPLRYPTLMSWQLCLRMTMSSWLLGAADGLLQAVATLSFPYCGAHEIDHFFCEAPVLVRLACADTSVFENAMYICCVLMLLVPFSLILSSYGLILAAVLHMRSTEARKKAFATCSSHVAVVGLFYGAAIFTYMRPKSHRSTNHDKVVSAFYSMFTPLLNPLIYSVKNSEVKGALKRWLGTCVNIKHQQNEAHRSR
Summary of the method: as §1

O2T34 = test system: T8, O2T34
T8 sequence (whole entry): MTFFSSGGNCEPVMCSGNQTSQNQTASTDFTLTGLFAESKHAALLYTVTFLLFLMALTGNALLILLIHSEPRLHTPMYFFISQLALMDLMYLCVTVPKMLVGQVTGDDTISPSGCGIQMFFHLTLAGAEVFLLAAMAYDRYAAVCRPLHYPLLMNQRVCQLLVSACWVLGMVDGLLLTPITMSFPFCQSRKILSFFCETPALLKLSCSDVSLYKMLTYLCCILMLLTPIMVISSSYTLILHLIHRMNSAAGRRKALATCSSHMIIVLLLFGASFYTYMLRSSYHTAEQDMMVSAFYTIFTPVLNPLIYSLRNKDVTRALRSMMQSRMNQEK
Summary of the method: as §1

O2T35 = test system: T9, O2T35
T9 sequence (whole entry): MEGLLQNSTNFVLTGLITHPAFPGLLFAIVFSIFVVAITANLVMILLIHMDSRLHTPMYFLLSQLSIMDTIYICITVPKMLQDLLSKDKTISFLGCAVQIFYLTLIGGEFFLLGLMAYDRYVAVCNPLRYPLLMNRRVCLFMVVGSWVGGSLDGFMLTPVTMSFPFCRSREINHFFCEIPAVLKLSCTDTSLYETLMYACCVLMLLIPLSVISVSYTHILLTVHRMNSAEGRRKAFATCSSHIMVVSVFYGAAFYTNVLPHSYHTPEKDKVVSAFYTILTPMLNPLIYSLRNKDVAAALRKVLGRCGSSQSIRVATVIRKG
Summary of the method: as §1

O4A15 = test system: O4A15
Summary of the method: as §1

O4A47 = test system: T10, O4A47
T10 sequence (whole entry): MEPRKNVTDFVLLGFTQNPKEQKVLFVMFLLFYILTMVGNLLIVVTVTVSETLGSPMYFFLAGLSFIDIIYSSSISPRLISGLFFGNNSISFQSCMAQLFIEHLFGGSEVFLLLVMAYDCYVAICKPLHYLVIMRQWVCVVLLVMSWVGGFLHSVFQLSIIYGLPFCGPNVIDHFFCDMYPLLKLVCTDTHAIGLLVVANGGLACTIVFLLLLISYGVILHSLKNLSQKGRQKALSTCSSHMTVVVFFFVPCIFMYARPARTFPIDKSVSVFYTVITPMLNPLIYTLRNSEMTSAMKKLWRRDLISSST
Summary of the method: as §1

O4C46 = test system: O4C46
Summary of the method: as §1

O4F17 [3] = test system: T11, O4F17
T11 sequence (whole entry): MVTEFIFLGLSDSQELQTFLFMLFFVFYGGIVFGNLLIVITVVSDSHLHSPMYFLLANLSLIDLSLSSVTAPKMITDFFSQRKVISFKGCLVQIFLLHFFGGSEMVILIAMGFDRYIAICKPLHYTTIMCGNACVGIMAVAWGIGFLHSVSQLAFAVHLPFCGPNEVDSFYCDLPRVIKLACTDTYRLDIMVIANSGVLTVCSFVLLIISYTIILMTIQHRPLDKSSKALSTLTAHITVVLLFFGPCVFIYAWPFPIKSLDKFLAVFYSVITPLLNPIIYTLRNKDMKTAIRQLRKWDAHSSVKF
Summary of the method: as §1

O4F17 [4] = test system: T12, O4F17; remark: listed apart in the source
T12 sequence (whole entry): T11 sequence (whole entry) with E15G, Q293R
Summary of the method: as §1

O4F21 = test system: T13, O4F21
T13 sequence (whole entry): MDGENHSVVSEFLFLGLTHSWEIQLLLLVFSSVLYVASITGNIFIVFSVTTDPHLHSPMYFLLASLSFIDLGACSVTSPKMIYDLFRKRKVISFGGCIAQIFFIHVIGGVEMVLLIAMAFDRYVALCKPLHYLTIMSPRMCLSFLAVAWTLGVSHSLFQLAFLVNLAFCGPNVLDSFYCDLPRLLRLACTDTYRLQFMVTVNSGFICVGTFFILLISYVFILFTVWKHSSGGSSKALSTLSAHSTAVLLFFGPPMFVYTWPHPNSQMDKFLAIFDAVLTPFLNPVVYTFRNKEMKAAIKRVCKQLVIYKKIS
Summary of the method: as §1

O51A4 = test system: T14, O51A4
T14 sequence (whole entry): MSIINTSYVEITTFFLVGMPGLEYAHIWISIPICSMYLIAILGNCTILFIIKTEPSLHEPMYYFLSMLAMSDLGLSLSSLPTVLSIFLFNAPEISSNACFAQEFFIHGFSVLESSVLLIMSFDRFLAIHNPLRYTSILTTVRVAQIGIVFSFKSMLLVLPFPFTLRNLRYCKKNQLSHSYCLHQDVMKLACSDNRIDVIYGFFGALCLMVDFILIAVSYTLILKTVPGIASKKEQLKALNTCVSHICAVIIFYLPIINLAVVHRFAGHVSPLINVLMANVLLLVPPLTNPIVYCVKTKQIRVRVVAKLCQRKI
Summary of the method: as §1

O51B4 = test system: T15, O51B4
T15 sequence (whole entry): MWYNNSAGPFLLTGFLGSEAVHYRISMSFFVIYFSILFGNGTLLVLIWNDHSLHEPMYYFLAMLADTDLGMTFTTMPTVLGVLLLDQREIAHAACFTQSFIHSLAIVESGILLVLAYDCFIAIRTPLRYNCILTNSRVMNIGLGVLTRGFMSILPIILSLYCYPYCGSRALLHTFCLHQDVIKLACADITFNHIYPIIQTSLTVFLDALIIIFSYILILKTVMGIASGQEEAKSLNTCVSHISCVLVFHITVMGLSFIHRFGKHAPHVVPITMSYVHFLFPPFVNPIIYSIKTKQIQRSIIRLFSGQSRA
Summary of the method: as §1

O51B5 = test system: T16, O51B5
T16 sequence (whole entry): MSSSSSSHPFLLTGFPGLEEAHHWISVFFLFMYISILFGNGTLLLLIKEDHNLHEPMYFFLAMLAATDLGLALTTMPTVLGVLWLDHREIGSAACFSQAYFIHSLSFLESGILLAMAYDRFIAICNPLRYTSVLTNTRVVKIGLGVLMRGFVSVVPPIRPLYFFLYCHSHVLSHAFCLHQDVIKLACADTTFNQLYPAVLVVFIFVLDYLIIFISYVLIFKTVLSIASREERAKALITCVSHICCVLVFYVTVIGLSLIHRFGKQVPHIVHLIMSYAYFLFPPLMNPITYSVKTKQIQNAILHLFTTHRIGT
Summary of the method: as §1

O51B6 = test system: T17, O51B6
T17 sequence (whole entry): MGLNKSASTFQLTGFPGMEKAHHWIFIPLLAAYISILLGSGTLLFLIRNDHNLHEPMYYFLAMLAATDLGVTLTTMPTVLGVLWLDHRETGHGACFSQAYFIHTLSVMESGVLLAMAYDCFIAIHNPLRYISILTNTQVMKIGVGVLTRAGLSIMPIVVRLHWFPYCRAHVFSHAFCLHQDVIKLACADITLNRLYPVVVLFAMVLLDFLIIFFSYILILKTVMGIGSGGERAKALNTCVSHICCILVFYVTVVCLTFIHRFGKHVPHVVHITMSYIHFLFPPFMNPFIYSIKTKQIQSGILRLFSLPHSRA
Summary of the method: as §1

O51E1 = test system: T18, O51E1
T18 sequence (whole entry): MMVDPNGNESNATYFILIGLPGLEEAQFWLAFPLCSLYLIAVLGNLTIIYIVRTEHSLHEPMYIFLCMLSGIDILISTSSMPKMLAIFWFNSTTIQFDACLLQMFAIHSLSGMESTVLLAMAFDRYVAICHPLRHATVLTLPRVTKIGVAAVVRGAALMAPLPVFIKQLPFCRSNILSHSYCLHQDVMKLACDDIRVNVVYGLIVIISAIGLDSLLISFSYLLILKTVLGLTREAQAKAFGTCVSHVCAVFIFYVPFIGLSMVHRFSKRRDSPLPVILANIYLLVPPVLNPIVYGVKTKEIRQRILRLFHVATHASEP
Summary of the method: as §1

Measured: odorant receptor agonist call;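 further: active if original authors judged signal statistically different from baseline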

CS
inactive: all assays above

CCCCOC(C)=O
active: O51B4
inactive: all other assays above

CCC(C)=O
active: O4F17 [4]
inactive: all other assays above
